In paper PMC5001722:

What was measured:
Assay in all cases: co-IP; 293T cells co-transfected, lysates at 48 h in co-IP buffer (50 mM Tris-Cl pH 7.4, 50 mM NaF, 5 mM sodium phosphate, 0.1% Triton X-100); antibody to the tag 16 h at 4°C, protein A- and G-Sepharose, 7 washes; immunoblot
myc-ORF UL21A (HCMV) = molecular target: myc-ORF UL21A (HCMV)
myc-ORF UL30 (HCMV) = molecular target: myc-ORF UL30 (HCMV)
myc-ORF RL1 (HCMV) = molecular target: myc-ORF RL1 (HCMV)
myc-ORF UL19 (HCMV) = molecular target: myc-ORF UL19 (HCMV)

Measured: binding

B1: HA-UBE1L (enzyme, UniProt P41226 1-1012)
chain: MDALDASKLLDEELYSRQLYVLGSPAMQRIQGARVLVSGLQGLGAEVAKNLVLMGVGSLTLHDPHPTCWSDLAAQFLLSEQDLERSRAEASQELLAQLNRAVQVVVHTGDITEDLLLDFQVVVLTAAKLEEQLKVGTLCHKHGVCFLAADTRGLVGQLFCDFGEDFTVQDPTEAEPLTAAIQHISQGSPGILTLRKGANTHYFRDGDLVTFSGIEGMVELNDCDPRSIHVREDGSLEIGDTTTFSRYLRGGAITEVKRPKTVRHKSLDTALLQPHVVAQSSQEVHHAHCLHQAFCALHKFQHLHGRPPQPWDPVDAETVVGLARDLEPLKRTEEEPLEEPLDEALVRTVALSSAGVLSPMVAMLGAVAAQEVLKAISRKFMPLDQWLYFDALDCLPEDGELLPSPEDCALRGSRYDGQIAVFGAGFQEKLRRQHYLLVGAGAIGCELLKVFALVGLGAGNSGGLTVVDMDHIERSNLSRQFLFRSQDVGRPKAEVAAAAARGLNPDLQVIPLTYPLDPTTEHIYGDNFFSRVDGVAAALDSFQARRYVAARCTHYLKPLLEAGTSGTWGSATVFMPHVTEAYRAPASAAASEDAPYPVCTVRYFPSTAEHTLQWARHEFEELFRLSAETINHHQQAHTSLADMDEPQTLTLLKPVLGVLRVRPQNWQDCVAWALGHWKLCFHYGIKQLLRHFPPNKVLEDGTPFWSGPKQCPQPLEFDTNQDTHLLYVLAAANLYAQMHGLPGSQDWTALRELLKLLPQPDPQQMAPIFASNLELASASAEFGPEQQKELNKALEVWSVGPPLKPLMFEKDDDSNFHVDFVVAAASLRCQNYGIPPVNRAQSKRIVGQIIPAIATTTAAVAGLLGLELYKVVSGPRPRSAFRHSYLHLAENYLIRYMPFAPAIQTFHHLKWTSWDRLKVPAGQPERTLESLLAHLQEQHGLRVRILLHGSALLYAAGWSPEKQAQHLPLRVTELVQQLTGQAPAPGQRVLVLELSCEGDDEDTAFPPLHYEL
binds: all assays above

These are yes or no findings as the source states them, for the method shown. In cells and extracts the contact can be indirect. A result given as binding can be weak or reduced; the word gives no strength. Tags and fused reporters may be left off the sequences shown.
